From publication PMC5458555, “Conformational dynamics of dynamin-like MxA revealed by single-molecule FRET” (Nature Communications, 2017)
No constants are given. Whether binding was seen depends on the method and setting.

Key:
[1] = biological target: MxA^MO1 (monomeric human MxA construct for crystallization) (human) (UniProt P20591); assay: crystal structure; nucleotide-free crystal structure of MxA^MO1 at 2.9 Å; packing inside the crystal; both purified
[2] = biological target: MxA^MO1 (monomeric human MxA construct for crystallization) (human) (UniProt P20591); assay: SEC-MALS; Superdex200 10/300 SEC with in-line right-angle light-scattering/refractive index detector; 100 μM MxA^MO1; 20 mM HEPES (pH 7.3), 150 mM NaCl, 4 mM MgCl2, 1 mM DTT; no nucleotide; both purified

B1: MxA^MO1 (monomeric human MxA construct for crystallization) (protein, UniProt P20591)
chain: PGSVAENNLCSQYEEKVRPCIDLIDSLRALGVEQDLALPAIAVIGDQSSGKSSVLEALSGVALPRGSGIVTRCPLVLKLKKLVNEDKWRGKVSYQDYEIEISDASEVEKEINKAQNAIAGEGMGISHELITLEISSRDVPDLTLIDLPGITRVAVGNQPADIGYKIKTLIKKYIQRQETISLVVVPSNVDIATTEALSMAQEVDPEGDRTIGILTKPDLVDKGTEDKVVDVVRNLVFHLKKGYMIVKCRGQQEIQDQLSLSEALQREKIFFENHPYFRDLLEEGKATVPCLAEKLTSELITHICKSLPLLENQIKETHQRITEELQKYGVDIPEDENEKMFFLSDKVNAFNQDITALMQGEETVGEEDIRLFTRLRHEFHKWSTIIENNFQEGHKILSRKIQKFENQYRGRELPGFVNYRTFETIVKQQIKALEEPAVDMLHTVTDMVRLAFTDVSIKNFEEFFNLHRTAKSKIEDIRAEQEREGEKLIRLHFQDEQIVYGAFQSSSATDSSMEEIFQHLMAYHQEASKRISSHIPLIIQFFMLQTYGQQLQSAMSQLSQDKDTYSWLLKERSDTSDKRKFLKERLARLTQARRRLAQFPG
binding [1]: no binding
binding [2]: no binding (tested: 100 μM)
